# Some of the results follow. Shown are side measurements of this screen, not its main read-out; they come without a call. Compounds called inactive in the main read-out are mostly missing here. The note in brackets gives the kind of curve behind each potency; many fits are weak.
# Test: qHTS Assay for Lipid Storage Modulators in Drosophila S3 Cells;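 on cell number change: cells counted by Cell Tracker Red CMTPX staining in the red channel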
# Settings: BODIPY lipid droplet fluorescence, 18-24 h; for cell number change: measured here: cell count max response, cells fed with added oleic acid
# How it was run: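 Drosophila S3 cells got compounds at several concentrations plus oleic acid (400 uM solution). Laser-scanning cytometry with 488 nm excitation read lipid droplets at 500-530 nm and cells at 575-640 nm. Percent activity was relative to 20 uM Triacsin C.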
# [1] = measured here: cell number channel AC50, cells fed with added oleic acid
# [2] = measured here: lipid fluorescence (Fed channel) AC50, cells fed with added oleic acid
SMILES,cell number change,AC50 [1],AC50 [2]
O=C1CC(N2CCN(Cc3ccc4c(c3)OCO4)CC2)C(=O)N1CCc1ccccc1 (stereo not drawn),173%,"20.6 µM [rising, single point]",
O=C(CNC(=O)c1ccc(Br)o1)NCc1ccc(Cl)cc1Cl,9.73%,,"5.8 µM [rising, full curve]"
Cc1nnc(N2CCCC(C(=O)NCc3ccc(OC(C)C)cc3)C2)c2nn(-c3ccccc3)c(C)c12 (stereo not drawn),-2.28%,"1.84 µM [rising, partial curve, poor fit]","18.4 µM [falling, single point]"
Cc1cc2nnn(-c3nnc(-c4ccccc4)c4ccccc34)c2cc1C,,,"20.6 µM [falling, partial curve]"
CCCCOc1ccc(/C=C/C(=O)NC2=Nc3ccccc3NC(C)=C2C(=O)OCC)cc1OC,19.2%,,
O=C(NCCCn1ccnc1)C1CC(c2cccc(Br)c2)=NO1 (stereo not drawn),7.35%,,
Cc1ccc(C)c(NC(=O)CSc2nncn2C)c1,22%,,"29.1 µM [rising, single point]"
CC(C)CN(C(=O)COC(=O)C12CC3CC(CC(O)(C3)C1)C2)C1CCS(=O)(=O)C1 (stereo not drawn),-24.8%,"0.146 µM [falling, full curve, poor fit]","0.326 µM [falling, full curve]"
COC(=O)C(Cc1cnc(Cl)s1)(C(=O)OC)c1ccccc1[N+](=O)[O-],61.3%,"25.9 µM [rising, single point]",
Cc1ccc(NC(=O)C(NC2CCCc3ccccc32)c2ccccc2)c([N+](=O)[O-])c1 (stereo not drawn),30.7%,"10.3 µM [rising, single point]","13 µM [rising, partial curve]"
COc1ccc(CNC(=O)C/C(C)=N/NC(=O)C(c2ccccc2)c2ccccc2)cc1,-10.9%,,
CC(NC(=O)NC1CCCCC1)c1ccccc1 (stereo not drawn),-4.23%,,"32.6 µM [falling, single point]"
Cc1cc(NC(=O)C2CCN(S(=O)(=O)c3cnc[nH]3)CC2)ccc1Br,0.338%,,"6.51 µM [rising, single point]"
Cc1cc(C)cc(N2C(=O)CC(N3CCOCC3)C2=O)c1 (stereo not drawn),1.1%,,"1.3 µM [falling, full curve]"
CCCCCCc1nc2c(=O)[nH]c3ccccc3c2o1,16.6%,,"0.366 µM [rising, single point]"
Cc1cc(=O)oc2cc(NC(=O)C3CCCC3)ccc12,36.3%,,
CCOc1cc(/C=N/NC(=O)Cn2nc([N+](=O)[O-])cc2C)cc(Br)c1OCc1ccccc1F,71.9%,"1.84 µM [rising, partial curve]","1.3 µM [rising, partial curve]"

# Shown bar-delimited: two of the compounds above
SMILES | cell number change | AC50 [1] | AC50 [2]
Cc1nnc(N2CCCC(C(=O)NCc3ccc(OC(C)C)cc3)C2)c2nn(-c3ccccc3)c(C)c12 (stereo not drawn) | -2.28% | 1.84 µM [rising, partial curve, poor fit] | 18.4 µM [falling, single point]
COc1ccc(CNC(=O)C/C(C)=N/NC(=O)C(c2ccccc2)c2ccccc2)cc1 | -10.9% |  | 

# — PubChem BioAssay AID2685 (National Center for Advancing Translational Sciences (NCATS), 2010)
